Source: PubChem BioAssay AID1671190 (National Center for Advancing Translational Sciences (NCATS), 2021)
The campaign covered roughly 580,000 compounds. About 6,100 (1.1%) were called active. The shares of active, inactive and inconclusive entries below differ from those in the screen. Calls follow the shape of the dose curve; as a rule, active = well fitted inhibition curve with a large enough effect; inconclusive = small, poorly fitted or top-dose-only effect, or another doubt; inactive = no such curve, though single readings can be large or run the other way. Potencies beside an inconclusive call are fits to weak or partial responses and may not hold up.

Protein sequences, listed by entry. Tags and fused reporters are not part of them. Lines headed by an entry give the natural chain unless they say otherwise; changes in a name come on top.
UniProt P18054: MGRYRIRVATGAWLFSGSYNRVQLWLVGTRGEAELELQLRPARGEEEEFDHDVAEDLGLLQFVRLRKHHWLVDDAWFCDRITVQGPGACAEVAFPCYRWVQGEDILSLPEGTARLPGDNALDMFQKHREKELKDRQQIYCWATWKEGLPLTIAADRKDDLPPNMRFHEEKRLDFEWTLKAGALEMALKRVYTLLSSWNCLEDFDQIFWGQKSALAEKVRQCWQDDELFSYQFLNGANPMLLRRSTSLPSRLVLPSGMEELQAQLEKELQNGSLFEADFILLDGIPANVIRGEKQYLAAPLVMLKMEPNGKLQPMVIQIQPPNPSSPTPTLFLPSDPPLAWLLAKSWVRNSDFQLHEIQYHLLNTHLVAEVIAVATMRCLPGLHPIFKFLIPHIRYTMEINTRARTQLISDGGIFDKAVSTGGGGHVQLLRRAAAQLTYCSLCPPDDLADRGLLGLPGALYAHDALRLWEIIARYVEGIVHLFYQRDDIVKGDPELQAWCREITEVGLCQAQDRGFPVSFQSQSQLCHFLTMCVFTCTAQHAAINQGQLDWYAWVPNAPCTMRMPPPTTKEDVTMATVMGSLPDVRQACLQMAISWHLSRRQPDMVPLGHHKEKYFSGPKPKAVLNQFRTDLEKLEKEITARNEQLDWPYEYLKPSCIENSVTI

These compounds were tested against Polyunsaturated fatty acid lipoxygenase ALOX12 (Homo sapiens) (UniProt P18054) (assay: Primary qHTS assay for inhibitors of human arachidonate 12S-lipoxygenase (ALOX12): Round 2). Conditions: purified 12hLO, xylenol orange hydroperoxide absorbance; activity change, negative = inhibition: at 108 µM (top of the series) unless noted.
Procedure, shortened: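 Hydroperoxide product was detected by ferrous iron/xylenol orange as the 573 to 405 nm absorbance ratio. Arachidonic acid at 40 uM (final) was turned over for 30 min at room temperature by 150 nM human 12hLO, pH 7.0 Hepes buffer, after 15 min compound preincubation.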
% is scaled to controls: 0 for no effect and ±100 for the full control effect; potency is read from the fitted curve at half-maximal effect.

| SMILES | Potency | activity change, negative = inhibition |
| --- | --- | --- |
| COC(=O)C1=C(C)N(Cc2ccccc2C(F)(F)F)C(=NCC2CC2)NC1c1cccc(Cl)c1 (centres undefined) | inactive | – |
| CSc1ccc(CNC(=O)C2CCC(=O)N(CCc3ccc(Cl)cc3)C2)cc1 (centres undefined) | inconclusive: 50.1 µM [inhibitor, partial curve, poor fit] | – |
| CC1(c2ccccc2)N(Cc2ccccc2F)C(=O)OC12CCN(Cc1c[nH]c3ccccc13)CC2 (centres undefined) | active: 28.2 µM | – |
| O=C(CSc1nc(-c2ccccc2)c(-c2ccccc2)o1)NC1CCS(=O)(=O)C1 (centres undefined) | inactive | – |
| O=C(COc1ccc(F)cc1Cl)Nc1cc(S(=O)(=O)N2CCOCC2)ccc1N1CCCCC1 | inconclusive: 89.1 µM [inhibitor, single point] | – |
| O=C(O)c1ccc(NC2(C(=O)O)CCCC2)cc1 | active: 14.1 µM | – |
| Cc1onc(-c2ccccc2Cl)c1C(=O)Nc1ccc(S(=O)(=O)Nc2nccs2)cc1 | inconclusive: 63.1 µM [inhibitor, partial curve, poor fit] | – |
| COc1cccc(-c2nc(NCc3cccs3)c3ccccc3n2)c1 | inconclusive: 39.8 µM [inhibitor, partial curve, poor fit] | – |
| Cc1ccc(N2C(=O)N3[C@H](c4ccc(Cl)cc4)[C@@H]4C(=O)N(C5CCCCC5)C(=O)[C@@H]4[C@]3(Cc3ccccc3)C2=O)cc1 | inconclusive: 89.1 µM [inhibitor, single point] | – |
| O=C1CSC(=S)N1c1ccc(F)c(Cl)c1 | inconclusive: 14.1 µM [inhibitor, partial curve, poor fit] | – |
| Cc1ccc(-n2nc(C)c(C(=O)NCCCN3CCN(c4cccc(Cl)c4)CC3)c2-n2cccc2)cc1 | – | inconclusive: -58.8% [inhibitor] |
| CN(C)CCn1cc(C(=O)c2ccccc2O)cc1-c1nc2ccccc2c(=O)[nH]1 | inconclusive: 44.7 µM [inhibitor, single point] | – |
| Cc1ccc(CCNc2nc3ccccc3c3nc(-c4cccnc4)nn23)cc1 | inactive | – |
| O=C(CN1C(=O)S/C(=C\c2ccc(Cl)cc2)C1=O)Nc1ccc2oc(=O)ccc2c1 | inconclusive: 44.7 µM [inhibitor, partial curve, poor fit] | – |
| COc1cccc(C(=O)N2CCC3(CC2)NC(=O)N(c2cccc(F)c2)N3)c1OC | active: 3.16 µM | – |
| COC(=O)c1ccc2nc(-c3ccc(F)cc3)c(CC3CCCCC3)n2c1 | inconclusive: 39.8 µM [inhibitor, partial curve, poor fit] | – |
| Cc1ccc(S(=O)(=O)N(C)c2ccc3ccccc3c2)cc1 | inactive | – |
| COc1cccc(N=Cc2c(O)n(-c3cccc(C)n3)c(=O)c3ccccc23)c1 | inconclusive: 44.7 µM [inhibitor, partial curve, poor fit] | – |
| S=C(N/N=C1/CCCCc2ccccc21)NC1CCCCC1 | active: 44.7 µM | – |
| OC(c1ccc(F)c(F)c1)c1ncc(-c2ccc(F)cc2)[nH]1 (centres undefined) | inconclusive: 31.6 µM [inhibitor, partial curve, poor fit] | – |
| CCCc1ccc(-c2cc(N)n[nH]2)cc1 | inactive | – |
| O=c1cc(-c2ccc(O)c(O)c2)oc2ccc3ccccc3c12 | inconclusive: 14.1 µM [inhibitor, full curve, poor fit] | – |

Ordered by molar mass (falling): some entries from above

| SMILES | Potency | activity change, negative = inhibition |
| --- | --- | --- |
| Cc1ccc(N2C(=O)N3[C@H](c4ccc(Cl)cc4)[C@@H]4C(=O)N(C5CCCCC5)C(=O)[C@@H]4[C@]3(Cc3ccccc3)C2=O)cc1 | inconclusive: 89.1 µM [inhibitor, single point] | – |
| O=C(CN1C(=O)S/C(=C\c2ccc(Cl)cc2)C1=O)Nc1ccc2oc(=O)ccc2c1 | inconclusive: 44.7 µM [inhibitor, partial curve, poor fit] | – |
| Cc1ccc(CCNc2nc3ccccc3c3nc(-c4cccnc4)nn23)cc1 | inactive | – |

The list continues:

| SMILES | Potency | activity change, negative = inhibition |
| --- | --- | --- |
| COc1ccc(CC(=O)c2ccc(O)c(C)c2O)cc1 | inconclusive: 100 µM [inhibitor, single point] | – |
| CCOc1ccccc1CNC(=O)c1cc2occc2n1C | inconclusive: 39.8 µM [inhibitor, partial curve, poor fit] | – |
| CCCCOC(=O)c1ccc(NC(=O)CCc2ncc(-c3ccccc3)o2)cc1 | inactive | – |
| Cc1ccc(NC(=O)c2cccc(NC(=O)N3CCSc4ncccc43)c2)cc1F | inconclusive: 63.1 µM [inhibitor, partial curve, poor fit] | – |
| CCOC(=O)/C=C1\CN(C(C)c2ccccc2)S(=O)(=O)c2ccccc21 (centres undefined) | inconclusive: 44.7 µM [inhibitor, partial curve, poor fit] | – |
| COc1ccc(C)cc1NC(=O)c1ccc(-n2cccn2)cc1 | inactive | – |
| Cc1cccc(C(=O)N2CCC(c3noc(COc4cccnc4)n3)CC2)c1 | inactive | – |
| O=C(Nc1ccccc1F)Nc1ccccc1SCc1cc(=O)n2ccccc2n1 | inconclusive: 158 µM [inhibitor, single point] | – |
| CCCCCN(C(=O)CCC(=O)OCC(=O)c1c(C)cc(C)cc1C)c1c(N)n(CCCC)c(=O)[nH]c1=O | inconclusive: 224 µM [inhibitor, partial curve, poor fit] | – |
| N#C/C(=C\c1ccccc1)C(=O)NC1CC1 | inactive | – |
| COc1ccc([S+](=O)([O-])N2CCC3(CC2)OCCN(CC2CC2)C3=O)cc1 | inconclusive: 8.91 µM [inhibitor, full curve, poor fit] | – |
| CCOc1ccccc1OCC(=O)Nc1nnc(COC)s1 | inconclusive: 39.8 µM [inhibitor, partial curve, poor fit] | – |
| CCNc1nc(SCC(N)=O)nc2sc3c(c12)CCN(C)C3 | inconclusive: 39.8 µM [inhibitor, single point] | – |
| CCCCCCN1CC(O)=C(c2ccccc2)C1=N | inconclusive: 3.98 µM [inhibitor, full curve, poor fit] | – |
| COC(=O)C1=C(CCc2ccccc2)NC(=O)NC1c1ccc(Br)cc1 (centres undefined) | inconclusive: 50.1 µM [inhibitor, partial curve, poor fit] | – |
| CC1CCN(C(=O)c2ccc(NC(=O)c3cccs3)cc2)CC1 | inactive | – |
| Cc1cccc(C)c1OCCCCN1CCCCC1 | inconclusive: 3.98 µM [inhibitor, full curve] | – |
| CC(C)C(=O)Nc1ccc(F)c(F)c1F | inactive | – |
| CC(=O)N1CCN(C(=O)c2nc(-c3ccccc3)cs2)CC(O)C1 (centres undefined) | inactive | – |
| Cc1ccc(-n2c(-c3ccc(Cl)cc3)n[nH]c2=S)c(C)c1 | inconclusive: 44.7 µM [inhibitor, partial curve, poor fit] | – |
| COC(=O)C1=C(CS(=O)(=O)c2ccccc2)NC(=O)NC1c1ccccc1 (centres undefined) | inactive | – |
| C[C@H](NC(=O)[C@@H](O)c1cc(F)cc(F)c1)C(=O)N[C@@H]1C(=O)N(C)c2ccccc2-c2ccccc21 | inconclusive: 0.685 µM [inhibitor, full curve, poor fit] | – |
